Taken from: PubChem BioAssay AID1508597 (Cure First, 2020)
Shown is a random part of the about 2,100 reagents, in one setting of the screen. 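Calls flag viability under 80% in either arm, not effects specific to rucaparib; the reference for percent is not stated.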 Unmarked entries are inactive. A reagent listed more than once was tested more than once; the source does not tell the runs apart. The record does not give: the 100% reference.

- Assay: 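Knock-downs altering ovarian cancer cell survival with or without PARP inhibitor rucaparib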 (primary screen)
- Cell system: human ovarian carcinoma lines grown from tumours: OCI-P5x (papillary serous) and OCI-C5x (clear cell)
- Knock-down reagent: siRNA pool against human genes, 1.25 pmol siRNA per well
- Time to read-out: 72 h or 96 h, depending on the cell culture
- Challenge: rucaparib 20 µM (about IC30) or vehicle, present until read-out
- Rucaparib or vehicle: Vehicle
- Cell line: OCI-C5x (clear cell)
- Measurement: 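ATP luminescence measured at 72 or 96 h according to the culture, then normalised and expressed as percent viability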
- Scale: viability, normalised: higher = more viable cells remaining
- Rule for the call: 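a well counts as a hit if its normalised viability is under 80 percent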
- Calls: active = viability under 80%; inactive = viability 80% or more

target | PubChem SID | technical replicate | viability, normalised (%)
DDX43 (GeneID 55510) | SID405528190 | 1 | 50.2 (active)
DDX43 (GeneID 55510) | SID405528190 | 2 | 47.1 (active)
DDX43 (GeneID 55510) | SID405528190 | 3 | 62.4 (active)
F7 (GeneID 2155) | SID405526776 | 1 | 20.9 (active)
F7 (GeneID 2155) | SID405526776 | 2 | 20.8 (active)
F7 (GeneID 2155) | SID405526776 | 3 | 29.8 (active)
PHF23 (GeneID 79142) | SID405527153 | 1 | 42.3 (active)
PHF23 (GeneID 79142) | SID405527153 | 2 | 41.8 (active)
PHF23 (GeneID 79142) | SID405527153 | 3 | 41.7 (active)
SIRT7 (GeneID 51547) | SID405527305 | 1 | 31.4 (active)
SIRT7 (GeneID 51547) | SID405527305 | 2 | 38.5 (active)
SIRT7 (GeneID 51547) | SID405527305 | 3 | 39.2 (active)
SLC16A2 (GeneID 6567) | SID405527308 | 1 | 56.6 (active)
SLC16A2 (GeneID 6567) | SID405527308 | 2 | 55.8 (active)
SLC16A2 (GeneID 6567) | SID405527308 | 3 | 45.8 (active)
SPHK1 (GeneID 8877) | SID405527656 | 1 | 134
SPHK1 (GeneID 8877) | SID405527656 | 2 | 33.7 (active)
SPHK1 (GeneID 8877) | SID405527656 | 3 | 68.6 (active)
AMHR2 (GeneID 269) | SID405527667 | 1 | 57.2 (active)
AMHR2 (GeneID 269) | SID405527667 | 2 | 56.1 (active)
AMHR2 (GeneID 269) | SID405527667 | 3 | 51.2 (active)
MYB (GeneID 4602) | SID405527042 | 1 | 24.5 (active)
MYB (GeneID 4602) | SID405527042 | 2 | 30.6 (active)
MYB (GeneID 4602) | SID405527042 | 3 | 31.8 (active)
PRKAR1A (GeneID 5573) | SID405527840 | 1 | 45 (active)
PRKAR1A (GeneID 5573) | SID405527840 | 2 | 50.7 (active)
PRKAR1A (GeneID 5573) | SID405527840 | 3 | 50.6 (active)
ATRX (GeneID 546) | SID405528003 | 1 | 38.1 (active)
ATRX (GeneID 546) | SID405528003 | 1 | 59.1 (active)
ATRX (GeneID 546) | SID405528003 | 2 | 58 (active)
ATRX (GeneID 546) | SID405528003 | 2 | 45.6 (active)
ATRX (GeneID 546) | SID405528003 | 3 | 54.8 (active)
ATRX (GeneID 546) | SID405528003 | 3 | 48.9 (active)
NR1H3 (GeneID 10062) | SID405526387 | 1 | 65.5 (active)
NR1H3 (GeneID 10062) | SID405526387 | 2 | 51.2 (active)
NR1H3 (GeneID 10062) | SID405526387 | 3 | 55.2 (active)
MTF2 (GeneID 22823) | SID405527037 | 1 | 49.2 (active)
MTF2 (GeneID 22823) | SID405527037 | 2 | 62.4 (active)
MTF2 (GeneID 22823) | SID405527037 | 3 | 59.2 (active)

A few values from the entries so far:
Under “viability, normalised (%)”, SPHK1 (GeneID 8877) [SID405527656], technical replicate 2 has 33.7 (active)
PRKAR1A (GeneID 5573) [SID405527840], technical replicate 2, viability, normalised (%) → 50.7 (active)
For “viability, normalised (%)”, NR1H3 (GeneID 10062) [SID405526387], technical replicate 1 is entered as 65.5 (active)
For “viability, normalised (%)”, PHF23 (GeneID 79142) [SID405527153], technical replicate 3 reads 41.7 (active)
Under “viability, normalised (%)”, SPHK1 (GeneID 8877) [SID405527656], technical replicate 3 is entered as 68.6 (active)
Value of SLC16A2 (GeneID 6567) [SID405527308], technical replicate 1 in “viability, normalised (%)”: 56.6 (active)
